Measured values published in PubChem BioAssay AID1347075 (National Center for Advancing Translational Sciences (NCATS), 2019).
The whole screen tested about 400,000 compounds, of which about 5,500 (1.4%) were called active. Inconclusive means that the source gave no clear call. Such entries were picked first, then a sample of the others. The call rests on the fitted dose curve; in most records, active means well fitted cell-killing curve with a large enough effect; inconclusive means small, poorly fitted or top-dose-only effect, or effect the other way; inactive means flat fitted curve, though single readings scatter. Where the call is inconclusive, the potency comes from a doubtful curve fit.

Test: qHTS assay for MDR1-selective chemotherapeutics: Primary screen using the parental adenocarcinoma cell KB-3-1; further: nearly all actives have a fitted effect of over 60% in size
Conditions: KB-3-1 viability, CellTiter-Glo ATP luminescence, 72 h; activity change, negative = cytotoxic: at 46.1 µM (top of the series)
Method in brief: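 Here the drug-naive KB-3-1 line serves as comparator for MDR sub-line selectivity; cells received compound titrations, 72 h at 37 °C, then CellTiter-Glo readout.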
On the % scale 0 is the no-effect control and ±100 the full control effect; potency means the concentration at half of the fitted maximal effect.

SMILES	Potency	activity change, negative = cytotoxic
C=CCn1c(SCN2C(=O)c3ccccc3C2=O)nc2ccc(Cl)cc2c1=O	inconclusive: 18.4 µM [cytotoxic, single point]	–
COC(=O)C1CCC(=O)N1C(c1ccc(OC)cc1)c1cc(OC)c(OC)c(OC)c1 (stereo unspecified)	active: 0.82 µM	–
CCOC(=O)C1=C[C@@H](C(C)(C)C)N(S(=O)(=O)c2ccc(C)cc2)[C@H]1c1ccc(F)cc1	inconclusive: 29.1 µM [cytotoxic, single point]	–
CCn1c2c(c3cc(Br)ccc31)CCC/C2=N\O	inconclusive: 35.5 µM [cytotoxic, single point]	–
COc1ccc(N(CC(=O)NCCSCc2c(F)cccc2Cl)S(C)(=O)=O)cc1OC	inactive	–
CN1C(=O)C(CC(=O)Nc2ccccc2F)N(NC(=O)c2ccc(Br)cc2)C1=S (stereo unspecified)	inactive	–
CN(CC(=O)Nc1ccc(Cl)c(C(F)(F)F)c1)C(=O)c1ccc(S(=O)(=O)N2CCOCC2)cc1	active: 8.2 µM	–
O=C(Nc1cc(Br)ccc1O)C1CC(c2c(F)cccc2Cl)=NO1 (stereo unspecified)	inconclusive: 9.2 µM [cytotoxic, partial curve, poor fit]	–
Cc1cccc(CSc2ncnc3c2cnn3Cc2ccccc2)c1	inconclusive: 13 µM [cytotoxic, partial curve, poor fit]	–
CCN(CC)S(=O)(=O)c1ccc2c(c1)nc(CCC(=O)Nc1ccc3c(c1)OCO3)n2C	inactive	–
C=C(CC1([C@@H](NP(=O)(c2ccccc2)c2ccccc2)[C@H]2C[C@@H]2CCCC)CC1)c1ccccc1	inconclusive: 18.4 µM [cytotoxic, single point]	–
CC(C)(Oc1ccc(Cl)cc1)C(=O)NC1=NN(c2ccccc2)C(=O)C1	inconclusive: 23.1 µM [cytotoxic, single point]	–
CCc1ccc2nc(N(CCCN(C)C)C(=O)c3ccc(S(=O)(=O)N4CCCc5ccccc54)cc3)sc2c1	inconclusive: 20.6 µM [cytotoxic, single point]	–
COc1ccccc1CNC(=O)C1CCCN(S(=O)(=O)c2ccc3c(c2)CCCN3C(C)=O)C1 (stereo unspecified)	inconclusive: 29.1 µM [cytotoxic, single point]	–
CCc1ccc(-c2nc(CN3CCC(C(=O)N4CCN(c5ccccn5)CC4)CC3)c(C)o2)cc1	inconclusive: 20 µM [cytotoxic, single point]	–
Cc1ccccc1C(=O)Nc1ccc(-c2nc3ccc(C(=O)c4ccccc4)cc3[nH]2)cc1	inconclusive: 20.6 µM [cytotoxic, partial curve]	–
CSc1cccc(NC(=O)CCCOc2ccccc2)c1	–	inconclusive: -17.1%
CN(C)c1ccc(NC(=O)c2sc(SCC(=O)Nc3nccs3)nc2N)cc1	inconclusive: 29.1 µM [cytotoxic, single point]	–
C[C@@]12C(=O)N(c3ccc(F)cc3)C(=O)N1[C@@H]1c3ccccc3OC[C@@H]1[C@H]2c1ccccc1	inconclusive: 16.4 µM [cytotoxic, single point]	–
O=C(/C(=N/N=C/c1ccc(O)c(O)c1)c1ccccc1)c1ccccc1	inactive	–
Cc1ccc(N(C(=O)c2snc(C(N)=O)c2N)C(C(=O)NC2CCCC2)c2ccco2)cc1 (stereo unspecified)	inconclusive: 32.6 µM [cytotoxic, single point]	–
O=C(NC1CCCCCCC1)c1cc(F)c(F)cc1Cl	inactive	–

SMILES	Potency	activity change, negative = cytotoxic
CCOc1ccc(CCN2C(=O)C(=O)N([C@@H](Cc3ccccc3)CN3CCC[C@H]3CN3C(=O)C(=O)NC[C@@H]3CC(C)C)C[C@@H]2Cc2ccc(O)cc2)cc1	inconclusive: 29.1 µM [cytotoxic, single point]	–
O=C(CCCCn1c(=O)c2ccccc2n(Cc2ccc(Cl)cc2)c1=O)NCc1ccco1	active: 14.6 µM	–
Cn1c2c(c(=O)n(C)c1=O)C(C(F)(F)F)(C(F)(F)F)N=C(c1ccc(Cl)cc1)N2	active: 2.31 µM	–
COc1ccc(NC(=O)c2cc(C3CCCCN3C(=O)OCCF)on2)c(C)c1 (stereo unspecified)	inactive	–
CCCCCCC(=O)N(O)C1CC(=O)N(c2ccc(F)cc2)C1=O (stereo unspecified)	inactive	–
Cc1ccc(-c2ccccc2NC(=O)C2C3C=CC(C3)C2C(=O)O)o1 (stereo unspecified)	inactive	–
Cc1cc(C)cc(-n2ncc3c2CCCC3NC(=O)CN2CCCCC2=O)c1 (stereo unspecified)	inconclusive: 29.1 µM [cytotoxic, single point]	–
Cc1ccc(S(=O)(=O)Nc2ccc3nc(N)sc3c2)cc1	inconclusive: 23.1 µM [cytotoxic, partial curve, poor fit]	–
CCc1ccccc1N=C1S/C(=C/c2ccccc2OCC(=O)N2CCOCC2)C(=O)N1C	inconclusive: 18.4 µM [cytotoxic, single point]	–
O=C(NS(=O)(=O)c1ccc(Cl)cc1)c1ccccc1	inactive	–
CCCCNC(=O)C1C(c2ccc(C(F)(F)F)cc2)=Nc2ccccc2N1C(=O)c1cccc2ccccc12 (stereo unspecified)	inactive	–
Cc1cccc(OCCn2c(-c3ccc(Cl)cc3)nc3ccccc3c2=O)c1	inactive	–
CCN(c1ccc2c(c1)OCO2)S(=O)(=O)c1cc(Br)cc2c1N(C(=O)C1CC1)CC2	inconclusive: 18.4 µM [cytotoxic, single point]	–
Cc1[nH]c(=O)[nH]c(=O)c1S(=O)(=O)N1CCC(C(=O)N2CCN(c3cccc(C(F)(F)F)c3)CC2)CC1	inconclusive: 0.0082 µM [cytotoxic, full curve]	–
CCOC(=O)c1cnc2ccc(C)cc2c1Sc1ccc(F)cc1	inconclusive: 29.1 µM [cytotoxic, single point]	–
COc1cc(N(C)C)c(OC)cc1/C=C/c1ccnc2ccccc12	inactive	–
Cc1ncc(CO)c(/C=N/NC(=S)Nc2ccc(C(C)C)cc2)c1O	inconclusive: 18.4 µM [cytotoxic, single point]	–
Cc1ccc(C)c(OCC(O)CN2CCC(CN3C(=O)c4cccc5cccc(c45)C3=O)CC2)c1 (stereo unspecified)	active: 18.4 µM	–
COCc1cccc(-c2csc(C(O)c3cccc(OC)c3)n2)c1 (stereo unspecified)	inconclusive: 32.6 µM [cytotoxic, single point]	–
CCOc1ccc(NC(=S)N2CCC(c3ccc(C)cc3)C2)cc1 (stereo unspecified)	inactive	–
Nc1nnc(SCCOc2ccc(Br)cc2)s1	inconclusive: 25.9 µM [cytotoxic, single point]	–
COc1ccc([C@H]2[C@H]3C=CC[C@@H](C)[C@@H]3C(=O)N2Cc2ccccc2)cc1Cl	inconclusive: 29.1 µM [cytotoxic, single point]	–

In the list so far, these contain an NH in an aromatic ring:
SMILES	Potency	activity change, negative = cytotoxic
Cc1ccccc1C(=O)Nc1ccc(-c2nc3ccc(C(=O)c4ccccc4)cc3[nH]2)cc1	inconclusive: 20.6 µM [cytotoxic, partial curve]	–
Cc1[nH]c(=O)[nH]c(=O)c1S(=O)(=O)N1CCC(C(=O)N2CCN(c3cccc(C(F)(F)F)c3)CC2)CC1	inconclusive: 0.0082 µM [cytotoxic, full curve]	–

Later entries:

SMILES	Potency	activity change, negative = cytotoxic
CCC(CC)c1nc(C#N)c(NCc2ccccc2)o1	active: 14.6 µM	–
O=C(/C=C/c1ccc(O)cc1)c1ccc(O)cc1O	inconclusive: 29.1 µM [cytotoxic, single point]	–
CCCCc1c(-c2ccccc2F)ncn1CCc1ccccc1OC	inconclusive: 18.4 µM [cytotoxic, single point]	–
CCOC(=O)C(C#N)=CN1CCN(C(=O)CCCl)c2ccccc21	inconclusive: 29.1 µM [cytotoxic, single point]	–
O=S(=O)(Nc1ncnc2scc(-c3ccc(F)cc3)c12)c1cc(F)ccc1F	inconclusive: 23.1 µM [cytotoxic, single point]	–
Cc1ccnc(NS(=O)(=O)c2ccc(N3C(=O)c4ccccc4C3=O)cc2)n1	inconclusive: 18.4 µM [cytotoxic, single point]	–
CCOc1ccccc1N1CCN(C(=O)c2ccc3[nH]c(C)c(C)c3c2)CC1	active: 8.2 µM	–
O=C(Cc1ccccc1)Nc1ncnc2c1C(c1ccccc1)c1c(ccc3ccccc13)O2 (stereo unspecified)	inconclusive: 18.4 µM [cytotoxic, single point]	–
COc1ccc(CCNC(=O)[C@@H](NC(=O)N2CCn3c2nc2ccccc23)C(C)C)cc1OC	inconclusive: 25.9 µM [cytotoxic, partial curve, poor fit]	–
CC1(C)CC(=O)C=C(Nc2ccc(O)cc2)C1	inconclusive: 18.4 µM [cytotoxic, single point]	–
O=C(Nc1c(Cl)ccc2nsnc12)c1ccc([N+](=O)[O-])o1	inconclusive: 2.59 µM [cytotoxic, partial curve, poor fit]	–
N#Cc1ccc(S(=O)(=O)NC[C@H]2O[C@@H](n3cnc4c(N)ncnc43)[C@H](O)[C@@H]2O)cc1	inconclusive: 23.1 µM [rising, partial curve, poor fit]	–
Cc1ccc(Cn2ccc(NC(=O)c3noc4c3CCCCC4)n2)cc1	inconclusive: 14.6 µM [cytotoxic, partial curve, poor fit]	–
C[C@@H]1CN([C@H](C)CO)C(=O)CCCn2nncc2CO[C@H]1CN(C)Cc1ccc(C(F)(F)F)cc1	inconclusive: 0.326 µM [rising, full curve, poor fit]	–
Cc1oc(S(=O)(=O)N(C)C)cc1C(=O)Nc1ccc(Cl)cc1	inactive	–
CC1C/C(=N\NC(=S)NCc2ccccc2)CC(C)(C)C1 (stereo unspecified)	inactive	–
Cc1sc2nc3c(C(=O)N4CCCC4)cc(C(=O)c4ccccc4O)cn3c(=O)c2c1C	inconclusive: 29.1 µM [cytotoxic, single point]	–
COc1cccc(-c2nn(-c3ccccc3)cc2CN(C)Cc2ccon2)c1	inactive	–
CCNC(=S)N1CCc2cc(OC)c(OC)cc2C1COc1ccc(F)cc1 (stereo unspecified)	inactive	–
CCCC(=O)Nc1nc(C)c(-c2csc(Nc3ccc(Cl)cc3)n2)s1	inconclusive: 29.1 µM [cytotoxic, single point]	–
N=C1/C(=C\c2ccc(-c3cc(Cl)cc(Cl)c3)o2)C(=O)N=C2SC=C(c3ccccc3)N12	inactive	–
CCOc1ccccc1N(CC)C(=O)c1cc2c(=O)[nH]c3ccc(C)cc3c2s1	inactive	–
